This note sets out measurements from doi:10.1101/855361.

Protein sequences, listed by entry. Tags and fused reporters are not part of them.
UniProt Q9UHD2: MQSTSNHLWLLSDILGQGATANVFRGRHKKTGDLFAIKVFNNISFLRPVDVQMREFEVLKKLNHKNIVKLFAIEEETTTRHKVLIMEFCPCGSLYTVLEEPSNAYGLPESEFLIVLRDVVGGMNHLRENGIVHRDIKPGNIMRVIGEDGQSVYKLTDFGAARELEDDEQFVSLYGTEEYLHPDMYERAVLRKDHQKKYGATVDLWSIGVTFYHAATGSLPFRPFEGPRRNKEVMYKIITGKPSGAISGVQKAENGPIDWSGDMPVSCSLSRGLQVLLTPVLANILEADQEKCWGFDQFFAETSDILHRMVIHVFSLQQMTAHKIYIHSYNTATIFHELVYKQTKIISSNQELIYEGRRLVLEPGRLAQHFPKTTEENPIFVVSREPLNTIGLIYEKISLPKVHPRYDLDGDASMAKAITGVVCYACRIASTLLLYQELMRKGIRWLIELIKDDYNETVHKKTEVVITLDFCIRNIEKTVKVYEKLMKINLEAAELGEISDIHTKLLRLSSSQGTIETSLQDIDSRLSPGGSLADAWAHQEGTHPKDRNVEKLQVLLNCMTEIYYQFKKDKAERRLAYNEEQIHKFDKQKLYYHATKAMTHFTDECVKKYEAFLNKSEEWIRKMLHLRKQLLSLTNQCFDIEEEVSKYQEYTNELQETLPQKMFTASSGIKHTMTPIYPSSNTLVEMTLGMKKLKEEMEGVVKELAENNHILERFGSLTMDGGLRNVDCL

These are yes or no findings as the source states them, for the method shown. Binding seen in cells or lysates may run through a third protein. These calls come from enrichment with a bait or labelling near it, and not all partners need be listed. Tags and fused reporters may be left off the sequences shown.

This test has as its target T1, HA-IKKε (IκB kinase ε, wild type) (human) (UniProt Q14164).
T1 sequence: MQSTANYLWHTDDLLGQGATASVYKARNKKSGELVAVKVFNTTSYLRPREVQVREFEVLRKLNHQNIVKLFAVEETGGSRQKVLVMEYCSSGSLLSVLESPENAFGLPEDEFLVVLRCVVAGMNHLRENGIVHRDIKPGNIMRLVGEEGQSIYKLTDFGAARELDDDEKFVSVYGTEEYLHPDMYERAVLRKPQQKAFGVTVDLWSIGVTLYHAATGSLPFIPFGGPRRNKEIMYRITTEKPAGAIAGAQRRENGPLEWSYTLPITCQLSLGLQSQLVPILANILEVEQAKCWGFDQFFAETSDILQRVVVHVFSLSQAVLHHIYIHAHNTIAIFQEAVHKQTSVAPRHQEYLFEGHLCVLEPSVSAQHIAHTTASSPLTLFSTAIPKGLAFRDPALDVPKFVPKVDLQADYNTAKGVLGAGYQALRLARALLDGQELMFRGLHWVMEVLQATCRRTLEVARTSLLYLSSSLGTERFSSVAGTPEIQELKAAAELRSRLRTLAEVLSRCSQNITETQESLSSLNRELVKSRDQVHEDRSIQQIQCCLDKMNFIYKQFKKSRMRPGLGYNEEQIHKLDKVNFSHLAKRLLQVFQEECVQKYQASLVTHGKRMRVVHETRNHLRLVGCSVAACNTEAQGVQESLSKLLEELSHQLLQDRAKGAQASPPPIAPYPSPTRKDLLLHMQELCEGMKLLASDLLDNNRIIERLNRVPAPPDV
As to the kind of experiment: affinity purification with mass spectrometry.

Take “TANK binding kinase 1 (TBK1) (from UniProt Q9UHD2 1-729) (enzyme)”: the binding result is given as “binds”.
